Part of at least one peptide drawing is inferred or uncertain, most often the ends. Square brackets hold non-standard residues; d marks the D form. Peptide text beside a SMILES is read from it. pGlu = O=C1CC[C@@H](C(=O)O)N1
What was measured:
[1] = tested on: feline immunodeficiency virus (FIV); test: Cats believed to be infected with feline immunodeficiency virus; assay type: in vivo; conditions: 200-500 μg/cat once a week for more than one month
[2] = tested on: REO virus type II; test: Jerne plaque assay (anti-SRBC hemolysis plaques) in new-born NC mice infected with REO virus; assay type: in vivo, mouse; conditions: for PFC/10^6 splenic cells: 1×10^5 PFU/mouse, after 18 days; for PFC/10^6 spleen cells (number of hemolysis plaques): FTS 10 μg/mouse with SRBC 2 weeks after 10^5 PFU REO virus, measured 4 days later, not infected 15 ± 2, infected untreated 2.8 ± 1.6
Protocol: Two weeks after the infection of 10^5 PFU REO virus, sheep red blood cells (referred to hereinafter simply as SRBC) was intraperitoneally administered and 4 days after the administration, the number of hemolysis plaques was measured by way of Jerne plaque assay as a production amount of antibody-forming cells against SRBC. The number of hemolysis plaques was 15±2 per 10^6 spleen cells in a group not infected with REO virus, while that was 2.8±1.6 in an infected group, thus showing a remarkable immunity inhibitory state. In compliance with this, atrophy of thymus and decrease in the number of thymic cortex lymphocytes were observed.
On the other hand, the effective ingredient of this invention dissolved in physiological saline was administered in an amount of 10 μg/mouse simultaneously with SRBC to mice, and 4 days after the administration, the number of hemolysis plaques was measured whereupon the number was 22±5. […] In a group to which muramyl dipeptide was administered in an amount of 20 μg/mouse together with Freund incomplete adjuvant, the number of hemolysis plaques was 11±2.
Next, recovery of the immune function by immunity-enhancing substance was examined, using new-born mice infected with REO virus type II. Two weeks after the infection of the mice with the virus, sheep red blood cells were administered to the mice, and 4 days after the administration, Jerne plaque assay was carried out to measure the number of hemolysis plaques. The number was 15±2 in a group of the mice not infected and was 2.8±1.6 in a group of the infected mice. […] This recovery of the function of immune inhibition is tabulated as follows:
Mice infected with virus was immunized at the same time with SRBC and an immunostimulant, and 4 days after the immunization, the number of hemolysis plaques was measured by Jerne plaque assay.
After mice being infected with REO virus, 10 μg 1 μg or 0.1 μg of FTS was administered to the mice. After 18 days, inhibition of immunity and recovery of its function were observed by way of Jerne plaque assay.
Virus: REO virus type II, innoculation 1×10^5 PFU/mouse

[3] = tested on: REO virus type II; test: Jerne plaque assay (anti-SRBC hemolysis plaques) in new-born ICR mice infected with REO virus; assay type: in vivo, mouse
[4] = tested on: REO virus; test: Number of splenic cells (lymphocytes and macrophages) in REO virus-infected new-born ICR mice; assay type: in vivo, mouse; conditions: administered 2 weeks and 4 weeks after the infection
[5] = tested on: REO virus type II; test: Disorder of glucose tolerance / diabetes caused by REO virus in new-born NC mice; assay type: in vivo, mouse; conditions: for Blood sugar: 4 days after administration; for blood sugar level (in words): 10 μg and 1 μg
[6] = tested on: REO virus type II; test: Disorder of glucose tolerance / diabetes caused by REO virus in new-born ICR mice; assay type: in vivo, mouse; conditions: for Blood sugar: 4 days after administration; for blood sugar level (in words): ICR mice, 10^4 PFU, 10 μg, dose not stated

C[C@H](NC(=O)[C@@H]1CCC(=O)N1)C(=O)N[C@@H](CCCCN)C(=O)N[C@@H](CO)C(=O)N[C@@H](CCC(N)=O)C(=O)NCC(=O)NCC(=O)N[C@@H](CO)C(=O)N[C@@H](CC(N)=O)C(=O)O [FTS, pGlu-Ala-Lys-Ser-Gln-Gly-Gly-Ser-Asn] ([pGlu]AKSQGGSN-OH)
condition of disease (blood biochemical examination, observation of symptoms) [1]: The condition of disease was improved | recovery of immune function in plaque assay (in words) ([2]; 10 μg/mouse, 4 weeks after infection of new-born NC mice with 10^4 PFU REO virus): recovered from the immunity inhibitory state to almost the normal level | PFC/10^6 splenic cells ([2]; FTS 0.1 μg): 19 ± 6 PFC/10^6 splenic cells | PFC/10^6 splenic cells ([2]; FTS 1 μg): 41 ± 13 PFC/10^6 splenic cells | PFC/10^6 spleen cells (number of hemolysis plaques) [2]: 22 ± 5 PFC/10^6 spleen cells | PFC/10^6 spleen cells (number of hemolysis plaques) ([2]; listed as effective ingredient): 22±5 PFC/10^6 spleen cells | PFC/10^6 splenic cells ([2]; FTS 10 μg, dose response experiment): 41 ± 7 PFC/10^6 splenic cells | PFC/10^6 splenic cells ([2]; FTS 10 μg, dose response experiment, listed as effective ingredient): 41±7 PFC/10^6 splenic cells | recovery of immunological response capacity (in words) ([3]; 10 μg/mouse, 10^4 PFU REO virus, 18 days after the infection): recovered the immunological response capacity to the same level as that of the immunological response capacity of untreated mice | PFC/10^6 splenic cells ([3]; FTS 0.1 μg about 4 weeks after 10^4 PFU infection): 31 ± 13 PFC/10^6 splenic cells | PFC/10^6 splenic cells ([3]; FTS 1 μg about 4 weeks after 10^4 PFU infection): 171 ± 21 PFC/10^6 splenic cells | PFC/10^6 splenic cells ([3]; FTS 10 μg about 4 weeks after 10^4 PFU infection, not infected 299 ± 13, infected untreated 17 ± 4): 253 ± 22 PFC/10^6 splenic cells | PFC/10^6 splenic cells ([3]; FTS 10 μg/mouse, 1×10^4 PFU/mouse, 18 days, not infected 372 ± 44, infected untreated 26 ± 9): 334 ± 26 PFC/10^6 splenic cells | increase in the number of splenic cells by infection (in words) [4]: obviously suppressed | increase in the number of splenic cells by infection (in words) ([4]; listed as effective ingredient): decreased to the level of untreated mice | Diabetes ([5]; FTS 0.1 μg): 100% | Blood sugar ([5]; FTS 0.1 μg about 2 weeks after 10^5 PFU infection): 404 ± 63 mg/dL | Diabetes ([5]; FTS 1 μg): 20% | Blood sugar ([5]; FTS 1 μg about 2 weeks after 10^5 PFU infection): 226 ± 6 mg/dL | Blood sugar ([5]; FTS 10 μg about 2 weeks after 10^5 PFU infection, not infected 193 ± 12, infected untreated 367 ± 36): 198 ± 11 mg/dL | Diabetes ([5]; FTS 10 μg, infected untreated 90): 0% | blood sugar level (in words) ([5]; NC mice, 10^5 PFU/mouse): apparent decrease of the blood sugar values to the normal value | blood sugar level (in words) ([5]; NC mice, 10^5 PFU/mouse, listed as effective ingredient): obviously restored to the normal level | mice deemed as diabetes (in words) ([5]; NC mice, 10^5 PFU/mouse, 10 μg/mouse): no mice to be deemed as diabetes was found | Diabetes (mice with blood sugar greater than 176 mg/dl) ([6]; FTS 0.1 μg): 33% | Blood sugar ([6]; FTS 0.1 μg about 2 weeks after 10^4 PFU infection): 180 ± 46 mg/dL | Diabetes (mice with blood sugar greater than 176 mg/dl) ([6]; FTS 1 μg): 43% | Blood sugar ([6]; FTS 1 μg about 2 weeks after 10^4 PFU infection): 167 ± 17 mg/dL | Blood sugar ([6]; FTS 10 μg about 2 weeks after 10^4 PFU infection, not infected 144 ± 16, infected untreated 178 ± 48): 144 ± 21 mg/dL | Diabetes (mice with blood sugar greater than 176 mg/dl) ([6]; FTS 10 μg, infected untreated 42): 14% | blood sugar level (in words) [6]: decreased to the normal value | blood sugar level (in words) ([6]; listed as effective ingredient): recovered to the normal level
